This assay concerns the target Xenopus LAP2β protein (lamina-associated polypeptide 2, isoform β) (Xenopus laevis (endogenous in XTC cells)) (UniProt O73766). As to the kind of experiment: affinity purification with mass spectrometry; immunoprecipitation with anti-XLAP2 Igs from unsynchronized XTC cell extracts under native conditions, tandem MS of the co-precipitated proteins; three procedures: 0.3 M NaCl throughout; 0.6 M NaCl throughout; 0.6 M NaCl in extraction and 0.3 M NaCl in the rest; 9 x 10^6 cells each; control Igs.

Chains of the proteins cited; added tags and fusions are not shown. Lines headed by an entry give the natural chain unless they say otherwise; changes in a name come on top.
UniProt O73766: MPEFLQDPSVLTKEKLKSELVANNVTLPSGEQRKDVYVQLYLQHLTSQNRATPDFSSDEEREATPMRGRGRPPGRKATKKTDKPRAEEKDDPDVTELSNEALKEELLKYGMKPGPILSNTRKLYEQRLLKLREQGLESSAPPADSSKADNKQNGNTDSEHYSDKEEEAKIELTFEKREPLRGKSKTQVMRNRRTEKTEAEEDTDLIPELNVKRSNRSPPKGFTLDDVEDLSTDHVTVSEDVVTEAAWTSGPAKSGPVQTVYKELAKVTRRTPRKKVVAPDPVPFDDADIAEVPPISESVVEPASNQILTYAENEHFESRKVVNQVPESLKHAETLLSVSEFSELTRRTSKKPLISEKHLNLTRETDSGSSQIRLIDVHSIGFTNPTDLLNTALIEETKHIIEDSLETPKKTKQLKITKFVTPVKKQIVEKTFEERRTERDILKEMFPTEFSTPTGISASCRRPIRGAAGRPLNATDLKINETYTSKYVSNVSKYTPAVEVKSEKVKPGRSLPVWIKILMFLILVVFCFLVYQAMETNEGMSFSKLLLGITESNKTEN
UniProt P11048: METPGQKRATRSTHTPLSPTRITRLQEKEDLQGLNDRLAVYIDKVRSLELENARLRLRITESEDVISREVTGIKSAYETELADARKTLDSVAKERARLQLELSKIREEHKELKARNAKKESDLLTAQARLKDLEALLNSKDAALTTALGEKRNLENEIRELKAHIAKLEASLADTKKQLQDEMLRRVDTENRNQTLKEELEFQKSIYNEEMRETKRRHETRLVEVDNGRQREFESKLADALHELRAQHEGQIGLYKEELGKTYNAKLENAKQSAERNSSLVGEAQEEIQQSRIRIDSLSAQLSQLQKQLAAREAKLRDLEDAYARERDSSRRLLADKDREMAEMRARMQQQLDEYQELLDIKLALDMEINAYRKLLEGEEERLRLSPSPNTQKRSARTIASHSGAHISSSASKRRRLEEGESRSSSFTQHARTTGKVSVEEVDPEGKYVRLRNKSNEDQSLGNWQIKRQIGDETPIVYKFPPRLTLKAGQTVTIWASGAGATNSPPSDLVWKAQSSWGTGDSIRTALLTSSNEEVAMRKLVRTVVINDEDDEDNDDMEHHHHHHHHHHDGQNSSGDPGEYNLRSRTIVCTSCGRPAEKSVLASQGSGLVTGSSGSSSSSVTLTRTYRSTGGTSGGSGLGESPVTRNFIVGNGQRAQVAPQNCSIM

Results are given in words; binding and its absence hold for the method and conditions named. In cells and extracts the contact can be indirect. A yes stands for co-enrichment or nearness to the bait. Other partners may have been found.

Regarding “lamin A protein (from UniProt P11048 1-665)”, the binding entry is listed as “binds”.

Values taken from PMC4819936.
